# Reference: the supplement of paper PMC11732987, “Enantioselective OTUD7B fragment discovery through chemoproteomics screening and high-throughput optimisation” (Communications Chemistry, 2025)
# The other results are listed elsewhere or left out. The data scatter; read single values as rough.
# Columns and labels:
# [1] = compound: ClCC(=O)N[C@@H]1CCCc2ccccc12; test: log2 mean competition ratio of IA-DTB cysteine labelling (DMSO/compound) (log2 ratio); higher = stronger cysteine engagement by compound; conditions: treatment time: 4 h, cell line lysate: HEK293T
# Experimental: (§1)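 IA-DTB competitive cysteine chemoproteomics in HEK293T RIPA lysate. Lysates were treated with compound 29 or 30 at 50 or 200 µM for 4 h, then IA-DTB (500 µM, 1 h), trypsin-digested, NeutrAvidin-enriched and analysed by diaPASEF. Competition ratio = intensity DMSO / intensity compound (n=4 treated, n=64 DMSO); binding: mean log2 CR ≥ 1 and p ≤ 0.05 plus QC filters. Target is the cysteine site.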
# [2] = compound: ClCC(=O)N[C@H]1CCCc2ccccc12; test: as above; conditions: treatment time: 4 h, cell line lysate: HEK293T
# Experimental: as §1
Target,log2 mean competition ratio ([1]; 50 µM),log2 mean competition ratio ([1]; 200 µM),log2 mean competition ratio ([2]; 50 µM),log2 mean competition ratio ([2]; 200 µM)
KDM3A C337 (UniProt Q9Y4C1),0.226,-0.092,0.574,-0.14
ITPR1 C1406 (UniProt Q14643),0.0147,-0.117,-0.0339,-0.0162
KIF2A C199 (UniProt O00139),-0.223,-0.0749,-0.236,0.0271
KIF1A C609,0.0365,-0.0822,0.223,-0.0596
KIAA1671 C585,-0.23,0.382,-0.16,0.447
JMJD1C C508 (UniProt Q15652),-0.175,-0.307,-0.457,-0.163
KCMF1 C54 (UniProt Q9P0J7),0.00443,0.252,-0.431,-0.246
KIF2C C344 (UniProt Q99661),0.129,-0.00861,0.0417,0.0851
ITPK1 C156 (UniProt Q13572),-0.126,0.0219,-0.168,0.327
KIF1C C229 (UniProt O43896),-0.0927,-0.0687,-0.23,-0.157
ITPR2 C292 (UniProt Q14571),0.298,0.436,-0.0809,0.276
KDELR1 C29 (UniProt P24390),0.0502,-0.104,0.106,-0.0843
IRGQ C340 (UniProt Q8WZA9),-0.0905,-0.0772,0.209,0.174
ITFG2 C140,-0.308,-0.133,-0.0296,0.0716
JUP C457 (UniProt P14923),-0.311,0.274,-0.339,0.151
JMJD4 C143 (UniProt Q9H9V9),-0.281,0.043,-0.108,-0.142
IRF3 C371 (UniProt Q14653),-0.207,0.086,0.164,0.127
ITGA4 C183 (UniProt P13612),-0.0169,-0.158,-0.496,-0.0143
ITPR3 C215 (UniProt Q14573),0.0107,-0.142,0.0535,-0.105
KDM3A C304 (UniProt Q9Y4C1),0.0275,0.0518,0.489,0.107
KIF13B C1529 (UniProt Q9NQT8),0.675,-0.456,0.117,-0.201
IRS4 C545,-0.149,0.696,-0.307,0.535

Target,log2 mean competition ratio ([1]; 50 µM),log2 mean competition ratio ([1]; 200 µM),log2 mean competition ratio ([2]; 50 µM),log2 mean competition ratio ([2]; 200 µM)
KDM6A C4 (UniProt O15550),0.136,-0.116,-0.1,-0.215
KDM3B C937 (UniProt Q7LBC6),0.00548,0.0798,-0.127,0.148
KAT5 C192 (UniProt Q92993),-0.358,0.248,0.256,-0.1
ITPR2 C1649 (UniProt Q14571),-0.137,0.126,-0.0992,0.139
KDM1A C491 (UniProt O60341),-0.178,0.00102,0.121,0.0431
ISCA2 C56 (UniProt Q86U28),0.00963,0.0636,0.141,0.0441
KIF13A C26 (UniProt Q9H1H9),-0.0636,0.346,0.0992,0.0101
KIF23 C447 (UniProt Q02241),-0.0356,-0.224,0.342,-0.159
KATNA1 C266 (UniProt O75449),-0.158,0.192,-0.0917,0.158
KCNK1 C329 (UniProt O00180),-0.37,-0.168,-0.336,0.215
KCTD5 C6 (UniProt Q9NXV2),-0.19,0.732,-0.537,0.365
JKAMP C181,-0.238,0.207,0.196,-0.044
KIF14 C291 (UniProt Q15058),-0.00383,0.168,0.164,0.191
KIF3A C12 (UniProt Q9Y496),-0.189,0.0185,-0.328,-0.0569
KIF23 C933 (UniProt Q02241),-0.0462,-0.0513,-0.185,0.0343
JMY C498 (UniProt Q8N9B5),-0.136,0.167,0.159,0.165
ISCU C130 (UniProt Q9H1K1),-0.0644,-0.241,0.759,0.0931
KAT14 C547 (UniProt Q9H8E8),-0.123,0.216,0.273,0.217
JTB C85 (UniProt O76095),-0.0669,0.229,-0.0833,0.131
KARS1 C427 (UniProt Q15046),-0.369,-0.0817,-0.107,-0.0482
ITM2B C38 (UniProt Q9Y287),-0.44,-0.435,0.454,-0.402
KIF1B C1607 (UniProt O60333),-0.133,-0.367,-0.373,-0.633

# Part of the list above, tab-delimited.
Target	log2 mean competition ratio ([1]; 50 µM)	log2 mean competition ratio ([1]; 200 µM)	log2 mean competition ratio ([2]; 50 µM)	log2 mean competition ratio ([2]; 200 µM)
KIF13A C26 (UniProt Q9H1H9)	-0.0636	0.346	0.0992	0.0101
JMY C498 (UniProt Q8N9B5)	-0.136	0.167	0.159	0.165
KAT14 C547 (UniProt Q9H8E8)	-0.123	0.216	0.273	0.217
